Results: paper PMC11279866 (Pharmaceutics, 2024)

Test: general procedure: peptide synthesis; 2-chlorotrityl chloride resin; TBTU/DIPEA
Conditions: whole synthesis, HPLC and mass spectrometry

Substance: DOTA-Ahx-VGB3
- final HPLC purity: >86%
